PubChem BioAssay AID2551 (National Center for Advancing Translational Sciences (NCATS), 2010)
The campaign covered roughly 310,000 compounds. About 17,000 (5.5%) were called active. The shares of active, inactive and inconclusive entries below differ from those in the screen. Calls follow the shape of the dose curve; as a rule, active = well fitted inhibition curve with a large enough effect; inconclusive = small, poorly fitted or top-dose-only effect, or effect the other way; inactive = no such curve, though single readings can be large or run the other way. Potencies beside an inconclusive call are fits to weak or partial responses and may not hold up.

Sequences of proteins named here, by UniProt entry; tags and fusion partners are left off. A change or cut given only in a name is not applied to a line headed by its entry.
UniProt P51450: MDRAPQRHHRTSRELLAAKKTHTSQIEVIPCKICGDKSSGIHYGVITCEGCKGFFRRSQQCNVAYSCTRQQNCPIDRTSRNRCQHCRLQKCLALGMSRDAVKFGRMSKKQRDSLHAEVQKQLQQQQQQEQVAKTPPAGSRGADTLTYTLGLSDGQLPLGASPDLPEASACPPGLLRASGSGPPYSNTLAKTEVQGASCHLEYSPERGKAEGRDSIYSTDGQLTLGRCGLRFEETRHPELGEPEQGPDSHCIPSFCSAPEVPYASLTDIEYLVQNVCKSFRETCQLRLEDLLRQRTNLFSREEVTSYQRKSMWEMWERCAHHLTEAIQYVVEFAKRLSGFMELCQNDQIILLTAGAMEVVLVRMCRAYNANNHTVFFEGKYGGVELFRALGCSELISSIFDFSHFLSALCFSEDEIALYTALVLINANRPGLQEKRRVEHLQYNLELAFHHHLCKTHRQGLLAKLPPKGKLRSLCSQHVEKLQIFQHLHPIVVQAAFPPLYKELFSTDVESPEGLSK

molecular target: Nuclear receptor ROR-gamma (Mus musculus) (UniProt P51450); assay: qHTS for inhibitors of ROR gamma transcriptional activity; details: Drosophila S2 Gal4-RORgamma UAS-luciferase reporter, 20 h; activity change, negative = inhibition: at 53.6 µM (top of the series); also: nearly all actives have a fitted effect of over 60% in size
Summary of the method: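 Schneider cells (Drosophila), stable Gal4 DBD–ROR gamma + UAS-luc; 1 hr cmpd preincubation; Cu2+ induction 700 uM final; 20 hr ambient; luminescence.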
% is scaled to controls: 0 for no effect and ±100 for the full control effect; potency is read from the fitted curve at half-maximal effect.

Which Potency does the source give for `CC1(c2ccccc2)CC(C)(C)N(C(=O)c2cc([N+](=O)[O-])cc([N+](=O)[O-])c2)c2ccccc21` (stereo unspecified) here?
Its Potency is inconclusive: 14.1 µM [inhibitor, single point].

Which Potency does the source give for `O=C(COC(=O)c1cc(NS(=O)(=O)c2cccs2)ccc1O)Nc1cc(Cl)ccc1Cl` here?
The Potency was inconclusive: 35.5 µM [inhibitor, single point].

Which Potency does the source give for `CCc1cc(C(=O)N2CCCC(C(=O)c3ccc(Oc4ccccc4)cc3)C2)n(C)n1` (stereo unspecified) here?
Its Potency is inconclusive: 12.6 µM [activator, single point].

For `CCOc1ccccc1Nc1nc(-c2cccnc2)cs1`, which Potency is on record?
The Potency was inconclusive: 11.2 µM [activator, partial curve].

How did the “activity change, negative = inhibition” value turn out when `CC1CCN(CCCNC(=O)c2ccc3c(Cl)c4c(nc3c2)CCCC4)CC1` was run?
Its value is inactive: -7.68%.

With `COCc1ccc(CN2CCC(n3nccc3NC(=O)C(OC)c3ccccc3)CC2)o1` (stereo unspecified) as the molecule, how does the Potency read?
The Potency was inconclusive: 2 µM [inhibitor, full curve, poor fit].

`Cc1ccc(CNC(=O)c2ccc(N3CCCC3=O)cc2)cc1` was tested. Which “activity change, negative = inhibition” value did it give?
Its value is inactive: 10.1%.

`Cc1ccc(NC(=S)N2CCN(c3ccccn3)CC2)cc1C` was tested. Which Potency did it give?
The Potency was inconclusive: 35.5 µM [inhibitor, single point].

With `Cc1cc(C)n(-c2ccc(C(=O)Nc3sccc3C(N)=O)cc2)n1` as the molecule, how does the Potency read?
Its Potency is inconclusive: 0.112 µM [activator, full curve, poor fit].

Which Potency does the source give for `CC(C)CC(=O)NC(NC(=S)Nc1cccc2cccnc12)C(Cl)(Cl)Cl` (stereo unspecified) here?
Its Potency is inconclusive: 11.2 µM [inhibitor, single point].

With `Cn1cnnc1SCC(=O)Nc1nc(-c2ccccc2)cs1` as the molecule, how does the Potency read?
Its Potency is inconclusive: 22.4 µM [inhibitor, single point].

How did the “activity change, negative = inhibition” value turn out when `CC(C)c1ccc(NC(=S)NNc2ccc(Cl)c(C(=O)O)c2)cc1` was run?
Its value is inactive: -2.28%.

`Cc1ccc(SCCC(=O)Nc2cccnc2)cc1` was tested. Which Potency did it give?
Its Potency is inconclusive: 17.8 µM [activator, partial curve, poor fit].

Which Potency does the source give for `CCOc1ccc(C(=O)Nc2ccc(NC(=S)NC(=O)CC)cc2)cc1Cl` here?
Its Potency is inconclusive: 14.1 µM [inhibitor, single point].

For `COc1ccc(-c2nnc3n2N=C(c2c(OC)cccc2OC)CS3)cc1OC`, which “activity change, negative = inhibition” value is on record?
The value was inactive: -36.2%.

`CC(C)OC(=O)[C@@H]1CC[C@H](C)[C@@H](CCC[C@@H]2CC=C[C@H](CC#N)O2)O1` was tested. Which Potency did it give?
Its Potency is inconclusive: 35.5 µM [inhibitor, single point].

With `CCCC(=O)Nc1ccc2c(c1)nc(CN1CCN(C(C)=O)CC1)n2C` as the molecule, how does the “activity change, negative = inhibition” value read?
Its value is inactive: 10.6%.

For `COc1ccccc1NC(=O)C1=C(C)NC(=O)NC1c1ccc(C)s1` (stereo unspecified), which “activity change, negative = inhibition” value is on record?
The value was inactive: 11.4%.

`COCCn1nnnc1C(c1cccs1)N1CCN(c2cc(C)ccc2C)CC1` (stereo unspecified) was tested. Which Potency did it give?
Its Potency is inconclusive: 11.2 µM [inhibitor, single point].

`Cn1c(C(=O)N2CCc3ccccc3C2)cc2oc3ccccc3c21` was tested. Which Potency did it give?
Its Potency is inconclusive: 14.1 µM [activator, single point].

How did the Potency turn out when `O=C(CN1C(=O)c2ccccc2S1(=O)=O)c1ccccc1F` was run?
Its Potency is inconclusive: 14.1 µM [inhibitor, partial curve, poor fit].

How did the Potency turn out when `Cc1ccc(S(=O)(=O)NC(C)(C)CSc2nnc(Nc3ccccc3)s2)cc1` was run?
The Potency was inconclusive: 8.91 µM [activator, partial curve].

With `COc1ccc(S(=O)(=O)N2CCCC(C(=O)Nc3cccnc3)C2)cc1Cl` (stereo unspecified) as the molecule, how does the Potency read?
Its Potency is inconclusive: 15.8 µM [activator, partial curve].

Which Potency does the source give for `COC(=O)c1c(NC(=O)c2cnccn2)sc2c1CCC2` here?
The Potency was inconclusive: 35.5 µM [inhibitor, single point].

How did the Potency turn out when `Cc1onc(-c2c(Cl)cccc2Cl)c1-c1nc2cc(Cl)ccc2c(=O)o1` was run?
Its Potency is inconclusive: 35.5 µM [activator, single point].

Which “activity change, negative = inhibition” value does the source give for `COc1cc(NC(=O)Nc2cccc(C(C)=O)c2)cc(OC)c1OC` here?
Its value is inactive: -9.88%.

How did the “activity change, negative = inhibition” value turn out when `CCOC(=O)c1c(NC(=O)Cc2cccs2)sc(C(=O)NC2CCCC2)c1C` was run?
Its value is inactive: 25.1%.

Which “activity change, negative = inhibition” value does the source give for `C#CCN1C(=O)C2(OCCO2)c2ccccc21` here?
The value was inactive: 2.59%.

`COc1ccc(C(=O)Nc2cc(C)on2)cc1` was tested. Which Potency did it give?
The Potency was inconclusive: 25.1 µM [inhibitor, single point].

How did the Potency turn out when `COc1cc(C(=O)OCc2cc3ccccc3[nH]c2=O)cc(OC)c1OC` was run?
The Potency was inconclusive: 0.501 µM [activator, full curve, poor fit].

`COc1ccc(O)c(/C=N/NC(=O)CCC(=O)Nc2cccc(C)c2)c1` was tested. Which Potency did it give?
The Potency was active: 12.6 µM.

Which Potency does the source give for `CCOC(=O)CC(=O)CSc1ncnc2c1nnn2-c1ccccc1` here?
The Potency was inconclusive: 25.1 µM [inhibitor, single point].

`O=C(N/N=C\c1cc(Cl)ccc1O)c1ccc(S(=O)(=O)N2CCCCC2)cc1` was tested. Which Potency did it give?
Its Potency is active: 5.01 µM.

How did the Potency turn out when `COc1ccccc1Oc1c(NS(=O)(=O)c2ccc(C(C)(C)C)cc2)nc(-c2ncccn2)nc1OCCO` was run?
The Potency was inconclusive: 35.5 µM [activator, single point].

How did the “activity change, negative = inhibition” value turn out when `CCC(=O)N1CCN(c2ccc(Cl)cc2NC(=O)Cc2ccc(Cl)cc2)CC1` was run?
Its value is inactive: 31.4%.

With `Cc1cc(C)c(C(=O)C(C)OC(=O)c2ccc(Cl)nc2)cc1C` (stereo unspecified) as the molecule, how does the “activity change, negative = inhibition” value read?
Its value is inactive: 40.4%.

For `CCOc1cc(NC(=O)c2ccco2)c(OCC)cc1NC(=O)COc1ccccc1`, which “activity change, negative = inhibition” value is on record?
The value was inactive: -43.1%.

How did the Potency turn out when `CCN(CC)c1ccc(-c2n[nH]c(=S)n2-c2ccccc2)cc1` was run?
The Potency was active: 1.58 µM.

For `CCOCCCNC(=S)N1CCCN(c2nc3cc(C)ccc3cc2C#N)CC1`, which Potency is on record?
Its Potency is inconclusive: 20 µM [inhibitor, single point].

How did the Potency turn out when `CCOC(=O)C1CCN(S(=O)(=O)c2c(Cl)ccc3nonc23)CC1` was run?
Its Potency is active: 2.24 µM.

`CC(=O)Nc1cc(C(=O)N2CCCC2)ccc1Sc1ccc(Cl)cc1` was tested. Which Potency did it give?
The Potency was inconclusive: 3.16 µM [activator, single point].

Which “activity change, negative = inhibition” value does the source give for `Cc1ccc(C(=O)N2N=C(c3ccccc3)CC2(O)C(F)(F)F)o1` (stereo unspecified) here?
Its value is inactive: -3.87%.

How did the “activity change, negative = inhibition” value turn out when `Cc1ccc(S(=O)(=O)Oc2cccc(N3C(=O)C4CC=CCC4C3=O)c2)cc1` (stereo unspecified) was run?
Its value is inactive: 31.6%.

How did the Potency turn out when `OCC#Cc1ncc(C(F)(F)F)cc1Cl` was run?
The Potency was inconclusive: 12.6 µM [inhibitor, single point].

`CC1CCc2nc(NC(=O)C3CCCO3)sc2C1` (stereo unspecified) was tested. Which Potency did it give?
Its Potency is inconclusive: 15.8 µM [inhibitor, single point].

For `c1cncc(-c2nc3c(ccc4ccccc43)[nH]2)c1`, which Potency is on record?
Its Potency is inconclusive: 1.12 µM [inhibitor, full curve, poor fit].
